Here are results for one substance from article PMC11237091.

By UniProt entry, the sequences of proteins in these tests, tags left out. Where a name states a change or a piece, a line headed by the entry shows the natural chain unless it says otherwise.
UniProt P67809: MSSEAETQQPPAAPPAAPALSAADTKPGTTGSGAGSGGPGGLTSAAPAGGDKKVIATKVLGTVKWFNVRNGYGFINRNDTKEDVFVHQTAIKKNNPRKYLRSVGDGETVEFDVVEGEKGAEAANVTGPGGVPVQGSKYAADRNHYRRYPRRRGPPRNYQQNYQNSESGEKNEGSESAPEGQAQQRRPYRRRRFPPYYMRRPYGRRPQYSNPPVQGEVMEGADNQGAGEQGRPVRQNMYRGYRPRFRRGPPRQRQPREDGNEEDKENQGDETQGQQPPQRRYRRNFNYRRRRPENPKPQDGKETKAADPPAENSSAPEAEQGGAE

These are yes or no findings as the source states them, for the method shown. Binding seen in cells or lysates may run through a third protein. A result given as binding can be weak or reduced; the word gives no strength.

The experiment has as its target T1, SETD8 (lysine methyltransferase 5A) (human (endogenous in A673 and other ES cell lines)) (UniProt Q9NQR1).
T1 sequence: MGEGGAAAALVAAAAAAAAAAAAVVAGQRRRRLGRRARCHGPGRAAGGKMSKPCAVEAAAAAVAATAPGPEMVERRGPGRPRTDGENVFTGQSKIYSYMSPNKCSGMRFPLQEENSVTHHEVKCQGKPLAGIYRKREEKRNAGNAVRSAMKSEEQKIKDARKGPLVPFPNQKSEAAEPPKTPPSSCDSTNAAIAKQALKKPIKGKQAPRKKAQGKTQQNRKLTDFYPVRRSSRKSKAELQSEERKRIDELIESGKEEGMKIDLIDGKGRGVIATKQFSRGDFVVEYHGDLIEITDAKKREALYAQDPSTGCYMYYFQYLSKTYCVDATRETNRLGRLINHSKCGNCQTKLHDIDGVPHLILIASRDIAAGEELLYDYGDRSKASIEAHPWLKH
Nature of the experiment: co-IP; ES cell lysates incubated with primary antibodies overnight, beads 4 h, Western blot; normal IgG as negative control; also after mutation of Ser102 of YBX1 and after SETD8 knockdown.

For the substance “YBX1 with mutated Ser102 (from UniProt P67809)”, the binding result is reported as “binds”.
